Measurements: PubChem BioAssay AID504847 (National Center for Advancing Translational Sciences (NCATS), 2011)
Several values for one entry are separate records, joined by “and”; a condition that tells them apart may be missing. Equal values may be shown once. Among all 400,000 compounds or so, about 3,700 (0.93%) were called active. The shares of active, inactive and inconclusive entries below differ from those in the screen. The call rests on the fitted dose curve; in most records, active means well fitted inhibition curve with a large enough effect; inconclusive means small, poorly fitted or top-dose-only effect, or another doubt; inactive means no such curve, though single readings can be large or run the other way. Potencies of inconclusive entries are doubtful fits and often do not repeat.

By UniProt entry, the sequences of proteins in these tests, tags left out. Where a name states a change or a piece, a line headed by the entry shows the natural chain unless it says otherwise.
UniProt P11473: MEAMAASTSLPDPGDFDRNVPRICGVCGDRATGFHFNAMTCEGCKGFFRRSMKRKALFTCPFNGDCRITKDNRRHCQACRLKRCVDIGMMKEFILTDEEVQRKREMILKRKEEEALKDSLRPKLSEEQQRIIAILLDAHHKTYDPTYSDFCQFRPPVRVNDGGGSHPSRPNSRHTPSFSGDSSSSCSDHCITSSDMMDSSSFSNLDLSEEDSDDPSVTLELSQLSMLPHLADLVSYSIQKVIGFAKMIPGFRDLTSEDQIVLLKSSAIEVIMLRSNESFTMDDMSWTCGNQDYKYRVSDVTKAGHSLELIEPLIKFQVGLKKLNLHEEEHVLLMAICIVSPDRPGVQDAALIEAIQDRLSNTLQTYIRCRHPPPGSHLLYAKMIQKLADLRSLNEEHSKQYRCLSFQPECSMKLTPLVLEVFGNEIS

Biological target: Vitamin D3 receptor (Homo sapiens) (UniProt P11473)
Test: Inhibitors of the vitamin D receptor (VDR): qHTS
Conditions: VDR-SRC2-3 peptide fluorescence polarization, 2 h; max response, negative = inhibition: active compounds read low
Outline: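 After 23 nl compound addition and a short centrifugation, plates sat for 2 hours at ambient temperature; polarization of fluorescence then indicated loss of VDR binding to peptide SRC2-3.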
On the % scale 0 is the no-effect control and ±100 the full control effect; potency means the concentration at half of the fitted maximal effect.

Potency, inconclusive:
CC(=O)Nc1ccc(S(=O)(=O)Oc2ccc(C(=S)N3CCCCC3)cc2)cc1 100 µM [inhibitor, single point]
O=C(/C=C/c1c(Cl)nc2ccccn12)N1CCN(c2ccc(F)cc2)CC1 79.4 µM [inhibitor, single point]
O=C(CSc1c2c(nc3cc(Cl)ccc13)CCCC2)N1CCN(c2ccccc2F)CC1 89.1 µM [inhibitor, single point]
CCOC(=O)c1c(C)oc2c1c(CN1CCN(CCO)CC1)c(O)c1ccccc12 39.8 µM [inhibitor, single point]
O=C(C(=O)N1CCN(c2ccccc2F)CC1)c1cn(CC(=O)N2CCOCC2)c2ccccc12 39.8 µM [inhibitor, single point]
COc1ccc(NC(=S)NNS(=O)(=O)c2ccc3ccccc3c2)c(OC)c1 89.1 µM [inhibitor, single point]
CCOC(=O)N1CC=C2C(C#N)=C(N)C(C#N)(C#N)[C@H](c3ccccc3OCC)[C@H]2C1 79.4 µM [inhibitor, single point]
COc1ccc(-c2cc(OC(=O)c3cccc(Cl)c3)c3c(C)oc(C)c3c(=O)c2)cc1 56.2 µM [inhibitor, partial curve, poor fit]
Cc1nnc2n(c1=O)N=C(c1ccc(Cl)cc1)CS2 50.1 µM [inhibitor, partial curve, poor fit]
CCOC(=O)c1c(NC(=O)C2CC=CCC2C(=O)O)sc(C)c1CC (stereo not given) 15.8 µM [inhibitor, partial curve, poor fit]
CC1(C)Cc2c(c(N3CCOCC3)nc3sc(C(=O)N4CCCCC4)c(N)c23)CO1 100 µM [inhibitor, single point]
CCOc1cc(/C=C2/C(=N)N3C(=NC2=O)SN=C3S(C)(=O)=O)ccc1OC(=O)c1ccco1 35.5 µM [inhibitor, partial curve, poor fit]
COC(=O)c1ccc(NC(=S)N2CCN(C)CC2)cc1 0.355 µM [inhibitor, full curve, poor fit]
CSc1ccc(/C=C/C(=O)c2c(O)cc(C)oc2=O)cc1 56.2 µM [inhibitor, partial curve]
CNc1nc(N/N=C/c2ccc([N+](=O)[O-])cc2)nc(Nc2ccccc2)n1 39.8 µM [inhibitor, partial curve, poor fit]
CN(C1CCCCC1)S(=O)(=O)CCNC(=O)c1ccccc1 89.1 µM [inhibitor, partial curve, poor fit]
OB(O)c1cc2ccccc2o1 89.1 µM [inhibitor, partial curve, poor fit]
COC(=O)C(Cc1c[nH]c2ccccc12)NC(=O)c1cc(-c2ccc(OC)c(OC)c2)oc1C (stereo not given) 100 µM [inhibitor, single point]
Cc1ccc2nc(C)c(C(=O)NN=C3CCCCCC3)n2c1 89.1 µM [inhibitor, single point]
CNc1nc(-c2c(C)noc2C)nc2ccccc12 50.1 µM [inhibitor, partial curve]
CN(Cc1ccco1)C(=O)CSc1nc(C2CC2)n(-c2ccccc2)n1 79.4 µM [inhibitor, single point]
CCC(Sc1ncccc1Nc1ccccn1)C(=O)O (stereo not given) 79.4 µM [inhibitor, partial curve, poor fit]
CCCN(CC1CCCO1)C(=O)CCc1nnc(CCc2ccc(OC)cc2)o1 (stereo not given) 22.4 µM [inhibitor, partial curve, poor fit]
O=C(CSc1ccc(-c2ccc3c(c2)OCO3)nn1)Nc1nccs1 89.1 µM [inhibitor, single point]
NC(=O)c1ccc(-c2c(-c3ccccc3)sc3ccccc23)cc1 63.1 µM [inhibitor, partial curve, poor fit]
CC1CCN(S(=O)(=O)c2ccc3c4c2CC(=O)N4CC(C)S3)CC1 (stereo not given) 79.4 µM [inhibitor, partial curve, poor fit]
CN(C)c1ncnc2ccc(-c3ccccc3C(F)(F)F)cc12 50.1 µM [inhibitor, partial curve]
CCOC(=O)CNC(=O)CSc1ccc2nnc(-c3ccc(F)cc3)n2n1 89.1 µM [inhibitor, partial curve, poor fit]

Random excerpt: 2 entries already listed
Potency, inconclusive:
COc1ccc(-c2cc(OC(=O)c3cccc(Cl)c3)c3c(C)oc(C)c3c(=O)c2)cc1 56.2 µM [inhibitor, partial curve, poor fit]
O=C(C(=O)N1CCN(c2ccccc2F)CC1)c1cn(CC(=O)N2CCOCC2)c2ccccc12 39.8 µM [inhibitor, single point]

Following part:

Potency, active:
CC(C)(C)c1cc(O)c(C(C)(C)C)cc1O 28.2 µM
C/C=C/C=C/C(=O)N1CC2(CC(c3cccc(NC(=O)CCCCC)c3)=NO2)C[C@H]1C(N)=O (stereo not given in full) 79.4 µM
CC1=NN(c2ccccc2)C(=O)/C1=C/C=C/c1ccc(N(C)C)cc1 79.4 µM
COc1ccccc1NS(=O)(=O)c1cc(N)ccc1N1CCCC1 89.1 µM

Max response, negative = inhibition, inactive:
CCOc1ccccc1NC(=O)CSc1ncc(S(=O)(=O)c2ccc(C)c(C)c2)c(N)n1 -11.8%
CCN(C[C@H]1N[C@@](CC)(C(=O)OC)[C@H]2C(=O)N(Cc3ccccc3)C(=O)[C@@H]12)C(=O)C1CCCCC1 -10.5%
CCCC(=O)NC(c1ccc(N(C)C)cc1)c1c(O)ccc2ccccc12 (stereo not given) -3.58%
CCOc1ccc(C2NC(=O)NC(C)=C2[N+](=O)[O-])cc1OC (stereo not given) -0.59%
CCOC(=O)CCCNC(=O)CSc1nnc(-c2ccccc2)c(-c2ccccc2)n1 6.74%
CCC(O)(c1ccccc1)C(CN1CCOCC1)c1ccccc1 (stereo not given) 10.9%
COc1ccc(-c2cc(=O)c3cc(F)ccc3[nH]2)cc1 13.6% and -0.499%
Cc1ccccc1C(=O)N1CCN(C(c2ccccc2)c2ccccc2)CC1 -19.4%
